Laboratory results: PubChem BioAssay AID493246 (Drosophila RNAi Screening Center, 2011)
Aim: 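Genes fly cells need to grow and stay alive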 (primary screen). Cells: Drosophila Kc and S2R+ cells. Knock-down reagent: long dsRNA against Drosophila genes. Read-out: 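Cell number per well after knock-down, printed as raw plate values; calls were based on per-plate z-scores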. Reading the numbers: Kc cell number and S2R+ cell number: higher = more cells remaining. Active means: 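Counted as a hit if cell number falls by a z-score of at least 3 within its plate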.
The screen tested about 21,000 reagents; shown is a random part of those that have a named target and a result. In the full data, 429 (2%) were called active. 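Values are raw and not normalised between plates; calls rest on per-plate z-scores that were not deposited.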 The numbers tell different reagents against one gene apart. A plus sign joins genes that one reagent is predicted to hit. The record does not give: the amount of reagent, the time to read-out.

target gene	reagent	Kc cell number, rep 1	Kc cell number, rep 2	S2R+ cell number, rep 1	S2R+ cell number, rep 2	call
tra2 (transformer 2)	1	1.56e6	1.53e6	1.22e6	1.29e6	inactive
CG13581	1	1.54e6	1.58e6	1.23e6	1.44e6	inactive
CG2930	1	5.57e5		8.61e5		inactive
RpL18A (Ribosomal protein L18A)	1	1.04e6	1.13e6	6.29e5	7.51e5	active
CG9981	1	1.46e6	1.50e6	1.08e6	1.15e6	inactive
CG9896	1	6.70e5		8.67e5		inactive
CG9896	2	1.69e6	1.73e6	1.28e6	1.43e6	inactive
shv (shriveled)	1	1.50e6	1.55e6	1.09e6	1.21e6	inactive
CheA86a (Chemosensory protein A 86a)	1	1.56e6	1.61e6	1.03e6	1.21e6	inactive
Syt7 (Synaptotagmin 7)	1	1.58e6	1.57e6	1.09e6	1.19e6	inactive
Syt7 (Synaptotagmin 7)	2	1.64e6	1.64e6	1.06e6	1.15e6	inactive
Cyp6t3 (Cytochrome P450 6t3)	1	1.63e6	1.72e6	1.27e6	1.39e6	inactive
CG9386	1	1.65e6	1.11e6	1.24e6	1.35e6	inactive
CG4382	1	1.54e6	1.57e6	1.22e6	1.36e6	inactive
CG16758	1	1.58e6	1.53e6	1.02e6	1.16e6	inactive
CG16758	2	1.44e6	1.58e6	1.34e6	1.36e6	inactive
Stacl + CG8179 (retired record)	1	3.26e5	4.72e5	4.53e5	5.45e5	active
Mrp4 (Multidrug resistance protein 4)	1	1.56e6	1.60e6	1.23e6	1.26e6	inactive
SkpA (SKP1-related A)	1	4.95e5		8.61e5		inactive
nompB (no mechanoreceptor potential B)	1	1.44e6	1.53e6	1.17e6	3.24e5	inactive
nompB (no mechanoreceptor potential B)	2	1.58e6	1.59e6	1.26e6	3.16e5	inactive
nSyb (neuronal Synaptobrevin)	1	1.43e6	1.48e6	1.12e6	1.20e6	inactive
stumps	1	1.39e6	1.63e6	1.05e6	1.22e6	inactive
stumps	2	1.19e6	1.16e6	8.60e5	1.01e6	inactive
stumps	3	1.50e6	1.56e6	1.22e6	1.23e6	inactive

Targets above whose gene name begins with N or n:
target gene	reagent	Kc cell number, rep 1	Kc cell number, rep 2	S2R+ cell number, rep 1	S2R+ cell number, rep 2	call
nompB (no mechanoreceptor potential B)	1	1.44e6	1.53e6	1.17e6	3.24e5	inactive
nompB (no mechanoreceptor potential B)	2	1.58e6	1.59e6	1.26e6	3.16e5	inactive
nSyb (neuronal Synaptobrevin)	1	1.43e6	1.48e6	1.12e6	1.20e6	inactive
